# Data: patent publication US20240043531A1, “ANTI-CD47 MONOCLONAL ANTIBODY AND USE THEREOF” (Akeso Biopharma, Inc., priority 2021, published 2024)
# The chains behind the UniProt entries cited, without tags or fusion partners. Residues count along the entry.
# UniProt Q08722, residues 19-323: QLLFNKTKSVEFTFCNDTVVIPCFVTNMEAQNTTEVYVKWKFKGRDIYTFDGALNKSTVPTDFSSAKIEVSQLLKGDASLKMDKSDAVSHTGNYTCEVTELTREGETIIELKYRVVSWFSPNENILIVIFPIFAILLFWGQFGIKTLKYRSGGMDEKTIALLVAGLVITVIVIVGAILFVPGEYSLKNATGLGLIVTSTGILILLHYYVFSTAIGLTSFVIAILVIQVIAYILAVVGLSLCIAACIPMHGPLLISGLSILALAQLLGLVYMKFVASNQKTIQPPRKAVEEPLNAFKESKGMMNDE
# No constants are given. Whether binding was seen depends on the method and setting. Some entries that bind do so weakly or less than the wild type.
# B1: anti-CD47 monoclonal antibody 6F7 (secreted by hybridoma cell line LT012) (antibody, V domains shown)
# VH: QVQLQQPGAELVRPGASVKLSCKASGYTFTSYWMNWVKQRPGQGLEWIGMIDPSDSETHNNQMFKDKATLTVDKSSNTAYMHLSSLTSEDSAVYHCARLYRWYFDVWGAGTTVTVSS
# VL: NIVMTQSPKSMSMSLGERVTLSCKASEIVGTYVSWFQQKPHQSPKLLIYGASNRYTGVPDRFTGSGSATDFTLTISNVQAEDLADYHCGQSYNFPYTFGGGTKLEIK
# notes: Murine hybridoma antibody; also called CD47-6F7; LT012 antibody
# Target: human CD47 on 3T3-CD47 cells (NIH/3T3 cells stably expressing the human CD47 mature peptide) (human) (UniProt Q08722)
# Assay: indirect ELISA screening with 3T3-CD47 cells as antigen
binder,measurement,value
B1,binding,binds
